# Measurements published in the supplement of paper PMC5407854, “Inhibitor of ppGalNAc-T3-mediated O-glycosylation blocks cancer cell invasiveness and lowers FGF23 levels” (eLife, 2017).
# The other results are listed elsewhere or left out. Most entries show no effect beyond the scatter of the controls.
# Tested on: ppGalNAc-T3 sensor
# Assay: T3 sensor activation Q score (MG/GFP ratio z-score vs DMSO controls) (SD units); higher = more sensor activation (inhibition of ppGalNAc-T3 glycosylation)
# Details: HEK293 sensor cells; 10 µM; 6 h
# Procedure: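 Cells were treated with compound at 10 uM for 6 h, then MG/GFP ratio was read by flow cytometry (10,000 cells per well, duplicate wells). Q = (R - R_neg)/SD_neg relative to DMSO vehicle controls; the signal rises when the glycosyltransferase is inhibited.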
row,SMILES,T3 sensor activation Q score
1,OC(CN1CCOCC1)Cn1c2ccccc2c2ccccc21 (configuration not stated),-0.485
2,CCc1ccccc1NC(=O)C(Cc1ccccc1)N1C(=O)c2ccccc2C1=O (configuration not stated),0.625
3,COC(=O)Nc1nc2ccc(C(=O)c3ccccc3)cc2[nH]1,0.87
4,CCN(CCN(C)C)Cc1ccc(F)cc1,0.6
5,COc1ccccc1NC(=O)c1cccc(C)c1,-0.79
6,CCOc1ccc(NC(=O)Nc2cccc(Cl)c2)cc1,-0.2
7,CN(C)CCNc1ncnc2scc(-c3ccccc3)c12,-0.09
8,CC(C)(C)c1nc(CN2CCCCC2)cc(CN2CCCCC2)c1O,0.15
9,CC(C)c1cc(C(C)C)c(S(=O)(=O)NCCO)c(C(C)C)c1,-0.13
10,O=C(NCc1ccncc1)c1ccc(Br)cc1,1.49
11,COc1ccc(N2C(=O)CC(N3CCN(C/C=C/c4ccccc4)CC3)C2=O)cc1 (configuration not stated),0.025
12,CC1CN(CCC(C)c2ccccc2)CC(C)O1 (configuration not stated),0.565
13,O=C(c1cccs1)N1CCN(c2ccc([N+](=O)[O-])cc2)CC1,0.75
14,Cc1cccc(N(CC(=O)O)CC(=O)O)c1,1.18
15,O=S(=O)(Nc1ccc(O)c(Br)c1)c1ccc(Cl)cc1,-0.135
16,C=CCNC(=O)Cc1ccc([N+](=O)[O-])cc1,-0.735
17,O=C(O)CCNC(=O)c1ccccc1,-0.06
18,CN1CCN(C(=O)CN(c2ccccc2F)S(C)(=O)=O)CC1,-0.585
19,Clc1ccccc1CN1CCOCC1,0.25
20,O=C(Nc1ccc(F)cc1)Nc1ccc(Cl)cc1,-0.84
21,CCN(CC)c1ccc(NC(=O)c2ccco2)cc1,0.05
22,COc1ccc(CCNC(=O)C2CCCCC2)cc1OC,0.19

# A draw from above in order of number of heavy atoms, smallest number first.
row,SMILES,T3 sensor activation Q score
14,Cc1cccc(N(CC(=O)O)CC(=O)O)c1,1.18
21,CCN(CC)c1ccc(NC(=O)c2ccco2)cc1,0.05
2,CCc1ccccc1NC(=O)C(Cc1ccccc1)N1C(=O)c2ccccc2C1=O (configuration not stated),0.625
